According to paper PMC11706498:
These are yes or no findings as the source states them, for the method shown. In cells and extracts the contact can be indirect. Some results given as binding are weak or reduced against the parent protein; the word gives no strength.

Protein sequences, listed by entry. Tags and fused reporters are not part of them.
UniProt Q5AKU6: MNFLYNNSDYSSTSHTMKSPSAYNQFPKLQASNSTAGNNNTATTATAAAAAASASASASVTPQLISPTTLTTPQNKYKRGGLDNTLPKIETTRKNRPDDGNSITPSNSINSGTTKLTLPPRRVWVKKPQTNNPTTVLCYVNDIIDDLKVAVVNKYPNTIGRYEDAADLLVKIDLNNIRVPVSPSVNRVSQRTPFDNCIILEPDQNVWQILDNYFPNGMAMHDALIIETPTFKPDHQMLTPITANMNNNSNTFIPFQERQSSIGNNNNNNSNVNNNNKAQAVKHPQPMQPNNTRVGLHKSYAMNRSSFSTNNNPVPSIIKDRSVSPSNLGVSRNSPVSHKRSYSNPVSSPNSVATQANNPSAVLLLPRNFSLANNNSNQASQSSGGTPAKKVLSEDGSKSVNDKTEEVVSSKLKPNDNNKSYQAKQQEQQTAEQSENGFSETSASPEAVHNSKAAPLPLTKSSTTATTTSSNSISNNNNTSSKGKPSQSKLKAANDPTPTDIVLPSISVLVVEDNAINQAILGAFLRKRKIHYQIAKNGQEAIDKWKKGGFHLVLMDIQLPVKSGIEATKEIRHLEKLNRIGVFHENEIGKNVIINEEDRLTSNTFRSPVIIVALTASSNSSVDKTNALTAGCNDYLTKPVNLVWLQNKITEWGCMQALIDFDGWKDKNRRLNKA
UniProt A0A1D8PKE2: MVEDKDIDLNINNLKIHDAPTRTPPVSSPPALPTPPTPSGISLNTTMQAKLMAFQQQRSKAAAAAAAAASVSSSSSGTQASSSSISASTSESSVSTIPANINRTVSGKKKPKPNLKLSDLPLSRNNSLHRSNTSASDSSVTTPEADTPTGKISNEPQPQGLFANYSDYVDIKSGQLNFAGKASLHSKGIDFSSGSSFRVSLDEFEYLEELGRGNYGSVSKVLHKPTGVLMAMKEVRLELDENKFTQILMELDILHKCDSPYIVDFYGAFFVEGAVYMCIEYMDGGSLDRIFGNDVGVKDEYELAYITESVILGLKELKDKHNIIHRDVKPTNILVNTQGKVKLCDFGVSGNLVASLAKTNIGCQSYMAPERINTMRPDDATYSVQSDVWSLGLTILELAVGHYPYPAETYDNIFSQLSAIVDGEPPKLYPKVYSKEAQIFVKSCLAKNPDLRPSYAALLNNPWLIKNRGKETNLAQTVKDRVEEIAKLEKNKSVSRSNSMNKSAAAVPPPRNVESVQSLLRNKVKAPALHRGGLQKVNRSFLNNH

Columns and labels:
[1] = target: Ssk1-6His-myc (Ssk1 response regulator tagged with 6His-2myc) (C. albicans) (UniProt Q5AKU6); experiment: co-IP; Ssk1-6His-myc precipitated with anti-myc agarose from extracts of cells expressing Ssk2-HA and Ssk1-6His-myc (JC2262); Ssk2-HA detected by anti-HA blot; cells unstressed or exposed to high salt, oxidative or low salt stress
[2] = target: Ssk1-6His-myc (Ssk1 response regulator tagged with 6His-2myc) (C. albicans) (UniProt Q5AKU6); experiment: co-IP; Ssk1-6His-myc precipitated with anti-myc agarose from extracts of cells expressing Pbs2-HA and Ssk1-6His-myc (JC2643); Pbs2-HA detected by anti-HA blot; unstressed cells

Ssk2-HA (Ssk2 MAPKKK with a triple HA epitope tag) (from UniProt A0A1D8PM87 1-1483) (enzyme)
binding [1]: binds

Pbs2-HA (Pbs2 MAPKK with a triple HA epitope tag) (from UniProt A0A1D8PKE2 1-545) (enzyme)
binding [2]: no binding
